The supplement of paper PMC3334620
The full ranking holds about 33,000 sequences; the median of “E-score (-0.5 to 0.5)” is about -0.0014, and the highest 2% start at about 0.25. The list shows a part of the results.

target: T1, Cad1 (UniProt P24813); test: PBM E-score (8-mer binding enrichment) (E-score (-0.5 to 0.5)); higher = stronger / more preferred TF binding; conditions: protein concentration: 100 nM; construct: GST-full length
T1 sequence: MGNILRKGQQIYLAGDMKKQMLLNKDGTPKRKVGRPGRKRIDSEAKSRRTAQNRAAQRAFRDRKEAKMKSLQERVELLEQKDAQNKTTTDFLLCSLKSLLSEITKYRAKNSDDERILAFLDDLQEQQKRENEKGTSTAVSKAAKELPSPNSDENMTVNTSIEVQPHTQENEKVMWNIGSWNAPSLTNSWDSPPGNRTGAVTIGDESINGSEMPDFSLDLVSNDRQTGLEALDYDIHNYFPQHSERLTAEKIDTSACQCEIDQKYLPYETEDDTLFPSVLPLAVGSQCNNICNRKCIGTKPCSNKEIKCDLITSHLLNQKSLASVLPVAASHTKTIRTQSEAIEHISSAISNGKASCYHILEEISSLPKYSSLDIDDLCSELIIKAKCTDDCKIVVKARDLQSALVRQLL
Outline: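 E-scores (a modified Wilcoxon-Mann-Whitney statistic) were assigned by the Universal PBM Analysis Suite to every ungapped eight-base word pooled with its reverse complement. The input came from universal all-10-mer Agilent arrays made double-stranded by primer extension and probed with GST-tagged yeast transcription factors at about 100-200 nM. Fluorescent anti-GST detected bound protein, and masliner normalised the scans.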

| Sequence | PBM E-score |
| --- | --- |
| ATCGAAAG | 0.0605 |
| GGTGCACA | -0.211 |
| AAGACAGA | 0.129 |
| AAACATTT | 0.1 |
| TATATAGA | 0.0931 |
| AGGTGCGG | -0.0567 |
| ACTTAACC | 0.0171 |
| GAGCTCCC | -0.297 |
| ATCAGGAG | 0.0619 |
| AGCGCCAC | -0.0814 |
| AAAAGATC | -0.12 |
| TGAAGTAA | -0.0446 |
| TACCTGGA | 0.126 |
| AGCTTCAC | -0.0133 |
| CTTATTCC | 0.0685 |
| CGGCGACC | -0.144 |
| ATAGAGAC | -0.0816 |
| ATACAGAC | 0.0544 |
| GTAAGTAA | -0.0957 |
| CGAGTAGC | 0.172 |
| GAGATAAC | 0.159 |
| GTAGATCA | 0.0116 |
| CCCTGTCG | -0.127 |
| AGCCTAAA | 0.0556 |
| ATCAGGTA | 0.0427 |

| Sequence | PBM E-score |
| --- | --- |
| CACATGCA | -0.0306 |
| ATAGTGAG | 0.0376 |
| AAGTGGAC | -0.097 |
| TGCTATAA | -0.196 |
| AATAAATT | 0.282 |
| ACATGCGC | 0.166 |
| AAGGGGAC | -0.15 |
| ATCTACAA | -0.00702 |
| GTAATCTA | 0.268 |
| CACCATGG | -0.247 |
| ACGCGCTC | 0.125 |
| AGTTTCAG | -0.11 |
| ACCGGTCT | -0.314 |
| AAGGACGC | -0.0361 |
| ATGAAAAA | 0.27 |
| CCGGACCC | -0.145 |
| CAGTTAAG | 0.0983 |
| ACGGCTAC | 0.0723 |
| ACCAACGT | 0.0535 |
| CGTGAAGC | -0.0863 |
| TGAGGAAA | -0.0123 |
| AAGCGCGT | 0.149 |
| AAGAGTAG | -0.0348 |
| ACATTCGC | 0.0324 |
| AAGTGGGT | 0.077 |

Some of the entries so far, as labelled records:
ATAGTGAG
  PBM E-score = 0.0376
AATAAATT
  PBM E-score = 0.282
CAGTTAAG
  PBM E-score = 0.0983

The results go on.

| Sequence | PBM E-score |
| --- | --- |
| ACTCACTA | 0.0828 |
| ATCGGCAG | -0.128 |
| GTAGGCTA | 0.0272 |
| ATACAACA | 0.184 |
| ACAAACGG | 0.0977 |
| AGAGCTCC | -0.259 |
| ATAGTGGA | 0.143 |
| CATCGTGA | -0.0296 |
| CGTTCGTC | 0.248 |
| CTGTGAAC | 0.137 |
| CTTTAGCC | -0.00983 |
| GGCCCCTA | -0.28 |
| CCCTTATC | 0.0481 |
| TAGGTCGA | 0.131 |
| GACAACGA | 0.0671 |
| ATCAATAC | 0.0887 |
| GAGATGCC | -0.136 |
| CCAGATGG | -0.087 |
| CCATCTAC | -0.105 |
| CTCGACGC | 0.0779 |
| TAAGATTA | 0.155 |
| CTGTACAC | -0.0207 |
| ACGTTCAC | -0.0258 |
| ACTATAGC | -0.169 |
| CGGAAATC | 0.147 |

Retrieved one by one from the list above, three records:

| Sequence | PBM E-score |
| --- | --- |
| GGTGCACA | -0.211 |
| GAGATAAC | 0.159 |
| ATGAAAAA | 0.27 |

Further records follow.

| Sequence | PBM E-score |
| --- | --- |
| AATGGCAA | -0.11 |
| AGACGCTA | -0.0373 |
| CCCGCCTC | -0.111 |
| CCCGGAAG | -0.097 |
| CATAGAGA | -0.0244 |
| CCGGACAG | 0.0494 |
| ACCACCGC | 0.0188 |
| CAATTACA | 0.241 |
| CCTAGCAC | -0.199 |
| AATGACAC | -0.0164 |
| GGTAGGAC | -0.0374 |
| AGGTCACG | -0.126 |
| ATATTAGC | 0.178 |
| ATAGCGGC | 0.0738 |
| GGCACTCA | -0.28 |
| ATAGGGAA | -0.0908 |
| CGACAAGA | 0.0598 |
| CTCACTCA | 0.0891 |
| TGCGCGCA | 0.301 |
| ATCCTTCC | -0.304 |
| ATGGCTCG | 0.0346 |
| CAGCATGC | 0.109 |
| GAAGCCAA | -0.183 |
| AGAACTAC | 0.0514 |
| CACCGCTG | -0.216 |

A different layout for part of the listing above.
Sequence | PBM E-score
ATAGGGAA | -0.0908
CGACAAGA | 0.0598
CTCACTCA | 0.0891
TGCGCGCA | 0.301
ATCCTTCC | -0.304
ATGGCTCG | 0.0346

Following part.

| Sequence | PBM E-score |
| --- | --- |
| GAATGCAC | 0.0937 |
| ACCCGCTC | -0.392 |
| ATGGATCG | -0.032 |
| GCTGCTCA | 0.0295 |
| CACAAGAG | 0.0461 |
| CGCAAAGA | 0.0385 |
| ATTAATGC | 0.167 |
| GCGGGGTA | -0.0356 |
| AGGATCAT | -0.0896 |
| AATCGCCC | -0.17 |
| AGCCCGGG | -0.199 |
| AACTCGTG | 0.0424 |
| AAACTGTT | 0.11 |
| CTGGACAC | -0.109 |
| AACATTCT | 0.122 |
| CAGAAGAA | -0.09 |
| AATCCAGA | 0.0334 |
| ATGCGGCG | 0.021 |
| GTCCTGAA | -0.0863 |
| CTATTCCA | -0.0216 |
| TCGGACGA | 0.15 |
| ACTAAAAT | 0.255 |
| AGCAACTG | 0.0384 |
| CGGTCATA | 0.0524 |
| AAGCACGT | 0.188 |

| Sequence | PBM E-score |
| --- | --- |
| TAGCAAGA | 0.0627 |
| ATTTGGAC | 0.181 |
| GCTACTAC | 0.212 |
| CCGCGACA | 0.197 |
| ATTACCCC | -0.00399 |
| GCAATCAA | 0.148 |
| GGTGAGGA | -0.0557 |
| TACAATGA | -0.0149 |
| CTAAATAA | 0.103 |
| GACTTTGC | 0.0688 |
| GACGGATC | 0.151 |
| AATACGTG | 0.0629 |
| AGTATCTC | 0.178 |
| AAAACATA | 0.0652 |
| GCTTTAAC | 0.0263 |
| ATAAATTG | 0.253 |
| ATTGATTG | 0.133 |
| AAAACGTA | -0.104 |
| CGTTCACC | 0.00274 |
| CCATTCCC | -0.171 |
| CGTGAACG | -0.074 |
| CTAGGATA | -0.131 |
| ACGCTATG | -0.00184 |
| GGACCCAA | -0.0488 |
| GCTATTCA | -0.0289 |

| Sequence | PBM E-score |
| --- | --- |
| TAACCGTA | -0.0512 |
| AGTCCGGG | -0.133 |
| CTGCCTAC | 0.0761 |
| CGTCGCCA | 0.156 |
| ATCCAGGG | -0.173 |
| CGGGTGAA | -0.0261 |
| GGCCGGAC | -0.143 |
| GCCAGCTA | -0.0513 |
| GAGAGAAA | 0.14 |
| CCCGCGCG | 0.298 |
| TATAACCA | 0.0891 |
| CTAAAGTC | -0.0975 |
| CCTGGAGC | -0.0969 |
| ACTATTAC | 0.149 |
| CATAGGCC | -0.0621 |
| CTACATAA | -0.0789 |
| GTTGCAAC | 0.0901 |
| ACGGCCGG | -0.0115 |
| AATCTTGC | 0.176 |
| TAAGCGAA | 0.148 |
| ACATTTGA | 0.0757 |
| AAGAAACC | -0.053 |
